For test [1], the target named is T1, FLAG-tagged DGCR8 (UniProt Q8WYQ5).
T1 sequence: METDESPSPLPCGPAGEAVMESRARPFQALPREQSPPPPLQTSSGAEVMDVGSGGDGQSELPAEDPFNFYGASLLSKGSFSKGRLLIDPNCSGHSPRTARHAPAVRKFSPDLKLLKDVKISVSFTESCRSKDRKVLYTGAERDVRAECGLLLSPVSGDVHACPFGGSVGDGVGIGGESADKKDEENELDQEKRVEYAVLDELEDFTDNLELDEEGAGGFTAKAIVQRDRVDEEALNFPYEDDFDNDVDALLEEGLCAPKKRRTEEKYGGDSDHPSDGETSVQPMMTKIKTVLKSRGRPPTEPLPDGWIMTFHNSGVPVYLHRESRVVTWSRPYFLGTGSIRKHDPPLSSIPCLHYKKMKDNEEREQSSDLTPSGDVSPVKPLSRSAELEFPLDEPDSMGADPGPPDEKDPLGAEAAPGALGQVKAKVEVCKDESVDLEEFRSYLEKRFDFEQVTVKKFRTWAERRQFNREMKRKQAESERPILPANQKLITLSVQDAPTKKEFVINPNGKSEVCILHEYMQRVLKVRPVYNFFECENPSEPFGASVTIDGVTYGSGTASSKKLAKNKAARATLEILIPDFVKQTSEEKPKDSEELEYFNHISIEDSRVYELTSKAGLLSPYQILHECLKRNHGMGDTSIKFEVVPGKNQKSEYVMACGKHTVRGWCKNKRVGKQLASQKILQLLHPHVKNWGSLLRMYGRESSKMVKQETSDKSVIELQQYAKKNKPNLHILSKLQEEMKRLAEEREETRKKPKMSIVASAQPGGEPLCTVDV
The experiment in a line: co-IP; HeLa cells transfected with FLAG-DGCR8 and lysed in KCl lysis buffer (20 mM Tris pH 8.0, 100 mM KCl, 0.2 mM EDTA); IP with 3 ug FLAG or control mouse antibody, protein G beads, three washes with KCl lysis buffer, western blot. In general terms: In western blotting, separated proteins are transferred to a membrane and probed.

Chains of the proteins cited; added tags and fusions are not shown.
UniProt Q16637: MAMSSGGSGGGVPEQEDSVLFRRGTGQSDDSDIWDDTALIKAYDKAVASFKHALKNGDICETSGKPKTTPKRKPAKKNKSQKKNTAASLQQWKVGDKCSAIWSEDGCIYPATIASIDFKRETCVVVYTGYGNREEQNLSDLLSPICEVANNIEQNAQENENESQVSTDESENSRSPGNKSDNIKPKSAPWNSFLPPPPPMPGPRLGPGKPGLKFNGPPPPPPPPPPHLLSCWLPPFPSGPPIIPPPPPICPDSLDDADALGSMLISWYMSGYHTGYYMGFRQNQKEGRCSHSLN

Test [2] addresses survival of motor neuron protein (SMN) (human (endogenous in HeLa)) (UniProt Q16637). The test can be described thus: co-IP; HeLa RIPA lysate incubated with 4 ug mouse anti-SMN or control mouse antibody, captured on protein G beads, washed five times with RIPA, western blot; for coilin the lysate came from untreated cells or cells treated with 9 uM etoposide for 48 h.

These are yes or no findings as the source states them, for the method shown. In cells and extracts the contact can be indirect. Some binding calls cover weakened binding; strength is not graded here. For some assays here: Sequences can lack the tags named with a protein.

Turning to “survival of motor neuron protein (SMN) (from UniProt Q16637 1-294)”, the binding result in test [1] is reported as “binds”.

B1: Drosha (enzyme, UniProt Q9NRR4 1-1374)
chain: MMQGNTCHRMSFHPGRGCPRGRGGHGARPSAPSFRPQNLRLLHPQQPPVQYQYEPPSAPSTTFSNSPAPNFLPPRPDFVPFPPPMPPSAQGPLPPCPIRPPFPNHQMRHPFPVPPCFPPMPPPMPCPNNPPVPGAPPGQGTFPFMMPPPSMPHPPPPPVMPQQVNYQYPPGYSHHNFPPPSFNSFQNNPSSFLPSANNSSSPHFRHLPPYPLPKAPSERRSPERLKHYDDHRHRDHSHGRGERHRSLDRRERGRSPDRRRQDSRYRSDYDRGRTPSRHRSYERSRERERERHRHRDNRRSPSLERSYKKEYKRSGRSYGLSVVPEPAGCTPELPGEIIKNTDSWAPPLEIVNHRSPSREKKRARWEEEKDRWSDNQSSGKDKNYTSIKEKEPEETMPDKNEEEEEELLKPVWIRCTHSENYYSSDPMDQVGDSTVVGTSRLRDLYDKFEEELGSRQEKAKAARPPWEPPKTKLDEDLESSSESECESDEDSTCSSSSDSEVFDVIAEIKRKKAHPDRLHDELWYNDPGQMNDGPLCKCSAKARRTGIRHSIYPGEEAIKPCRPMTNNAGRLFHYRITVSPPTNFLTDRPTVIEYDDHEYIFEGFSMFAHAPLTNIPLCKVIRFNIDYTIHFIEEMMPENFCVKGLELFSLFLFRDILELYDWNLKGPLFEDSPPCCPRFHFMPRFVRFLPDGGKEVLSMHQILLYLLRCSKALVPEEEIANMLQWEELEWQKYAEECKGMIVTNPGTKPSSVRIDQLDREQFNPDVITFPIIVHFGIRPAQLSYAGDPQYQKLWKSYVKLRHLLANSPKVKQTDKQKLAQREEALQKIRQKNTMRREVTVELSSQGFWKTGIRSDVCQHAMMLPVLTHHIRYHQCLMHLDKLIGYTFQDRCLLQLAMTHPSHHLNFGMNPDHARNSLSNCGIRQPKYGDRKVHHMHMRKKGINTLINIMSRLGQDDPTPSRINHNERLEFLGDAVVEFLTSVHLYYLFPSLEEGGLATYRTAIVQNQHLAMLAKKLELDRFMLYAHGPDLCRESDLRHAMANCFEALIGAVYLEGSLEEAKQLFGRLLFNDPDLREVWLNYPLHPLQLQEPNTDRQLIETSPVLQKLTEFEEAIGVIFTHVRLLARAFTLRTVGFNHLTLGHNQRMEFLGDSIMQLVATEYLFIHFPDHHEGHLTLLRSSLVNNRTQAKVAEELGMQEYAITNDKTKRPVALRTKTLADLLESFIAALYIDKDLEYVHTFMNVCFFPRLKEFILNQDWNDPKSQLQQCCLTLRTEGKEPDIPLYKTLQTVGPSHARTYTVAVYFKGERIGCGKGPSIQQAEMGAAMDALEKYNFPQMAHQKRFIERKYRQELKEMRWEREHQEREPDETEDIKK
For B1, the binding result in test [2] is “binds weakly”.

(Values after article PMC6451326.)
